# The other results are listed elsewhere or left out.
# Columns and labels:
# Experiment in all cases: glycan array binding signal (z-score within array); higher = stronger binding
# Conditions in all cases: glycan notation: IUPAC condensed, linker removed
# [1] = molecular target: Gal(b1-4)GlcNAc(b1-3)Gal(b1-4)GlcNAc(b1-3)Gal(b1-4)GlcNAc(b1-3)Gal(b1-4)GlcNAc(b1-2)Man(a1-3)[Gal(b1-4)GlcNAc(b1-3)Gal(b1-4)GlcNAc(b1-3)Gal(b1-4)GlcNAc(b1-3)Gal(b1-4)GlcNAc(b1-2)Man(a1-6)]Man(b1-4)GlcNAc(b1-4)[Fuc(a1-6)]GlcNAc
# How it was run: (§1)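 The binding signal is a Z-score computed within each array. Data were drawn from 3228 arrays in the Consortium for Functional Glycomics database, restricted to those with a known protein sequence. Scores were averaged over arrays of the same protein sequence at different concentrations or buffers, and over linkers, and negative values can be taken as non-binding.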
# [2] = molecular target: Gal(b1-4)GlcNAc(b1-3)Gal(b1-4)GlcNAc(b1-3)Gal(b1-4)GlcNAc(b1-3)Gal(b1-4)GlcNAc(b1-2)[Gal(b1-4)GlcNAc(b1-3)Gal(b1-4)GlcNAc(b1-3)Gal(b1-4)GlcNAc(b1-3)Gal(b1-4)GlcNAc(b1-6)]Man(a1-6)[Gal(b1-4)GlcNAc(b1-3)Gal(b1-4)GlcNAc(b1-3)Gal(b1-4)GlcNAc(b1-3)Gal(b1-4)GlcNAc(b1-2)Man(a1-3)]Man(b1-4)GlcNAc(b1-4)[Fuc(a1-6)]GlcNAc
# How it was run: as §1
# [3] = molecular target: Gal(b1-4)GlcNAc(b1-3)Gal(b1-4)GlcNAc(b1-3)Gal(b1-4)GlcNAc(b1-3)Gal(b1-4)GlcNAc(b1-3)Gal(b1-4)GlcNAc(b1-2)Man(a1-3)[Gal(b1-4)GlcNAc(b1-3)Gal(b1-4)GlcNAc(b1-3)Gal(b1-4)GlcNAc(b1-3)Gal(b1-4)GlcNAc(b1-3)Gal(b1-4)GlcNAc(b1-2)Man(a1-6)]Man(b1-4)GlcNAc(b1-4)GlcNAc
# How it was run: as §1
# [4] = molecular target: Gal(b1-4)GlcNAc(b1-3)Gal(b1-4)GlcNAc(b1-3)Gal(b1-4)GlcNAc(b1-3)Gal(b1-4)GlcNAc(b1-3)Gal(b1-4)GlcNAc(b1-2)Man(a1-3)[Gal(b1-4)GlcNAc(b1-3)Gal(b1-4)GlcNAc(b1-3)Gal(b1-4)GlcNAc(b1-3)Gal(b1-4)GlcNAc(b1-3)Gal(b1-4)GlcNAc(b1-2)Man(a1-6)]Man(b1-4)GlcNAc(b1-4)[Fuc(a1-6)]GlcNAc
# How it was run: as §1
# [5] = molecular target: Gal(b1-4)GlcNAc(b1-3)Gal(b1-4)GlcNAc(b1-3)Gal(b1-4)GlcNAc(b1-3)Gal(b1-4)GlcNAc(b1-3)Gal(b1-4)GlcNAc(b1-2)[Gal(b1-4)GlcNAc(b1-3)Gal(b1-4)GlcNAc(b1-3)Gal(b1-4)GlcNAc(b1-3)Gal(b1-4)GlcNAc(b1-3)Gal(b1-4)GlcNAc(b1-6)]Man(a1-6)[Gal(b1-4)GlcNAc(b1-3)Gal(b1-4)GlcNAc(b1-3)Gal(b1-4)GlcNAc(b1-3)Gal(b1-4)GlcNAc(b1-3)Gal(b1-4)GlcNAc(b1-2)Man(a1-3)]Man(b1-4)GlcNAc(b1-4)[Fuc(a1-6)]GlcNAc
# How it was run: as §1
# [6] = molecular target: Gal(b1-4)GlcNAc(b1-3)Gal(b1-4)GlcNAc(b1-3)Gal(b1-4)GlcNAc(b1-3)Gal(b1-4)GlcNAc(b1-3)Gal(b1-4)GlcNAc(b1-3)Gal(b1-4)GlcNAc(b1-2)Man(a1-3)[Gal(b1-4)GlcNAc(b1-3)Gal(b1-4)GlcNAc(b1-3)Gal(b1-4)GlcNAc(b1-3)Gal(b1-4)GlcNAc(b1-3)Gal(b1-4)GlcNAc(b1-3)Gal(b1-4)GlcNAc(b1-2)Man(a1-6)]Man(b1-4)GlcNAc(b1-4)GlcNAc
# How it was run: as §1
# [7] = molecular target: Gal(b1-4)GlcNAc(b1-3)Gal(b1-4)GlcNAc(b1-3)GalNAc
# How it was run: as §1
# [8] = molecular target: Gal(b1-4)GlcNAc(b1-3)Gal(b1-4)GlcNAc(b1-3)[Gal(b1-4)GlcNAc(b1-3)Gal(b1-4)GlcNAc(b1-6)]GalNAc
# How it was run: as §1
# [9] = molecular target: Gal(b1-4)GlcNAc(b1-3)Gal(b1-4)GlcNAc(b1-6)[Gal(b1-3)]GalNAc
# How it was run: as §1
# [10] = molecular target: Gal(b1-4)GlcNAc(b1-3)Gal(b1-4)[Fuc(a1-3)]GlcNAc(b1-3)Gal(b1-4)[Fuc(a1-3)]GlcNAc
# How it was run: as §1
# [11] = molecular target: Gal(b1-4)GlcNAc(b1-3)GalNAc
# How it was run: as §1
# [12] = molecular target: Gal(b1-4)GlcNAc(b1-3)[Fuc(a1-3)GlcNAc(b1-6)]Gal(b1-4)Glc
# How it was run: as §1
# [13] = molecular target: Gal(b1-4)GlcNAc(b1-3)[Gal(b1-4)GlcNAc(b1-6)]Gal(b1-4)GlcNAc
# How it was run: as §1
# [14] = molecular target: Gal(b1-4)GlcNAc(b1-3)[GlcNAc(b1-6)]Gal(b1-4)GlcNAc
# How it was run: as §1
# [15] = molecular target: Gal(b1-4)GlcNAc(b1-6)Gal(b1-4)GlcNAc
# How it was run: as §1
# [16] = molecular target: Gal(b1-4)GlcNAc(b1-6)GalNAc
# How it was run: as §1
# [17] = molecular target: Gal(b1-4)GlcNAc(b1-6)[Gal(b1-3)]GalNAc
# How it was run: as §1
# [18] = molecular target: Gal(b1-4)GlcNAc(b1-6)[Gal(b1-4)GlcNAc(b1-3)]GalNAc
# How it was run: as §1
# Gal(b1-4)GlcNAc6P = molecular target: Gal(b1-4)GlcNAc6P
# How it was run: as §1
# Gal(b1-6)Gal = molecular target: Gal(b1-6)Gal
# How it was run: as §1
# Gal3S(b1-3)GalNAc = molecular target: Gal3S(b1-3)GalNAc
# How it was run: as §1
# Gal3S(b1-3)GlcNAc = molecular target: Gal3S(b1-3)GlcNAc
# How it was run: as §1
# [19] = molecular target: Gal3S(b1-3)[Fuc(a1-4)]GlcNAc
# How it was run: as §1
# Gal3S(b1-4)Glc = molecular target: Gal3S(b1-4)Glc
# How it was run: as §1
# Gal3S(b1-4)Glc6S = molecular target: Gal3S(b1-4)Glc6S
# How it was run: as §1
# Gal3S(b1-4)GlcNAc = molecular target: Gal3S(b1-4)GlcNAc
# How it was run: as §1
# [20] = molecular target: Gal3S(b1-4)[Fuc(a1-3)]Glc6S
# How it was run: as §1
# [21] = molecular target: Gal3S(b1-4)[Fuc(a1-3)]GlcNAc
# How it was run: as §1
# [22] = molecular target: Gal3S(b1-4)[Fuc(a1-3)]GlcNAc6S
# How it was run: as §1
# Gal3S4S(b1-4)GlcNAc = molecular target: Gal3S4S(b1-4)GlcNAc
# How it was run: as §1
# Gal3S6S(b1-4)GlcNAc = molecular target: Gal3S6S(b1-4)GlcNAc
# How it was run: as §1
# Gal3S6S(b1-4)GlcNAc6S = molecular target: Gal3S6S(b1-4)GlcNAc6S
# How it was run: as §1
# Gal4S(b1-4)GlcNAc = molecular target: Gal4S(b1-4)GlcNAc
# How it was run: as §1
# Gal4S6S(b1-4)GlcNAc = molecular target: Gal4S6S(b1-4)GlcNAc
# How it was run: as §1
# Gal6P(b1-4)GlcNAc = molecular target: Gal6P(b1-4)GlcNAc
# How it was run: as §1
# Gal6S(b1-3)GlcNAc = molecular target: Gal6S(b1-3)GlcNAc
# How it was run: as §1
# Gal6S(b1-3)GlcNAc6S = molecular target: Gal6S(b1-3)GlcNAc6S
# How it was run: as §1
# Gal6S(b1-4)Glc = molecular target: Gal6S(b1-4)Glc
# How it was run: as §1
binder,measurement,setting,value
OS9 (Arabidopsis thaliana) (protein) MRGSHHHHHHGMASMTGGQQMGRDLYDDDDKSRLQIFPAHLVGTFSRNNREPKYKIEFLPEDSPFHPGDNLESMVMLDKHGNRFLCYLPKEEKATSGWTSSQQNISTVMMETQQLVKLKTPDELLQPLSEKCLFRQEGWWSYEFCHQKYVRQLHVEDENKIVQEFFLGTFDPEATAAFNQTVSDASTDASQRYHSHVYTNGTTCDLTGSPREVEVRFVCAETRAMVTSITELSTCKYALTVQCPTLCKHPLFQLEKPVSHTIHCNAIPVEEDATRNKEEQAVDESPKMIADS,glycan array binding signal (z-score),[1],0.515
same,glycan array binding signal (z-score),[2],-0.643
same,glycan array binding signal (z-score),[3],-0.299
same,glycan array binding signal (z-score),[4],1.27
same,glycan array binding signal (z-score),[5],-0.551
same,glycan array binding signal (z-score),[6],0.798
same,glycan array binding signal (z-score),[7],0.571
same,glycan array binding signal (z-score),[8],1.24
same,glycan array binding signal (z-score),[9],0.462
same,glycan array binding signal (z-score),[10],-0.745
same,glycan array binding signal (z-score),[11],-0.217
same,glycan array binding signal (z-score),[12],-0.391
same,glycan array binding signal (z-score),[13],1.43
same,glycan array binding signal (z-score),[14],0.468
same,glycan array binding signal (z-score),[15],-0.595
same,glycan array binding signal (z-score),[16],-0.314
same,glycan array binding signal (z-score),[17],-0.191
same,glycan array binding signal (z-score),[18],-0.154
same,glycan array binding signal (z-score),Gal(b1-4)GlcNAc6P,-0.486
same,glycan array binding signal (z-score),Gal(b1-6)Gal,-0.669
same,glycan array binding signal (z-score),Gal3S(b1-3)GalNAc,-0.498
same,glycan array binding signal (z-score),Gal3S(b1-3)GlcNAc,-0.226
same,glycan array binding signal (z-score),[19],-0.48
same,glycan array binding signal (z-score),Gal3S(b1-4)Glc,0.638
same,glycan array binding signal (z-score),Gal3S(b1-4)Glc6S,0.366
same,glycan array binding signal (z-score),Gal3S(b1-4)GlcNAc,0.259
same,glycan array binding signal (z-score),[20],0.692
same,glycan array binding signal (z-score),[21],0.663
same,glycan array binding signal (z-score),[22],-0.255
same,glycan array binding signal (z-score),Gal3S4S(b1-4)GlcNAc,0.916
same,glycan array binding signal (z-score),Gal3S6S(b1-4)GlcNAc,-0.744
same,glycan array binding signal (z-score),Gal3S6S(b1-4)GlcNAc6S,1.93
same,glycan array binding signal (z-score),Gal4S(b1-4)GlcNAc,-0.85
same,glycan array binding signal (z-score),Gal4S6S(b1-4)GlcNAc,-0.425
same,glycan array binding signal (z-score),Gal6P(b1-4)GlcNAc,-0.696
same,glycan array binding signal (z-score),Gal6S(b1-3)GlcNAc,-0.382
same,glycan array binding signal (z-score),Gal6S(b1-3)GlcNAc6S,-0.07
same,glycan array binding signal (z-score),Gal6S(b1-4)Glc,-0.399

# Nothing new here: entries from further up.
binder,measurement,setting,value
OS9 (Arabidopsis thaliana) (protein) MRGSHHHHHHGMASMTGGQQMGRDLYDDDDKSRLQIFPAHLVGTFSRNNREPKYKIEFLPEDSPFHPGDNLESMVMLDKHGNRFLCYLPKEEKATSGWTSSQQNISTVMMETQQLVKLKTPDELLQPLSEKCLFRQEGWWSYEFCHQKYVRQLHVEDENKIVQEFFLGTFDPEATAAFNQTVSDASTDASQRYHSHVYTNGTTCDLTGSPREVEVRFVCAETRAMVTSITELSTCKYALTVQCPTLCKHPLFQLEKPVSHTIHCNAIPVEEDATRNKEEQAVDESPKMIADS,glycan array binding signal (z-score),[18],-0.154
same,glycan array binding signal (z-score),Gal(b1-4)GlcNAc6P,-0.486
